Assay results published in PMC3796546.
No constants are given. Whether binding was seen depends on the method and setting. In cells and extracts the contact can be indirect. Some results given as binding are weak or reduced against the parent protein; the word gives no strength.

By UniProt entry, the sequences of proteins in these tests, tags left out.
UniProt P25694: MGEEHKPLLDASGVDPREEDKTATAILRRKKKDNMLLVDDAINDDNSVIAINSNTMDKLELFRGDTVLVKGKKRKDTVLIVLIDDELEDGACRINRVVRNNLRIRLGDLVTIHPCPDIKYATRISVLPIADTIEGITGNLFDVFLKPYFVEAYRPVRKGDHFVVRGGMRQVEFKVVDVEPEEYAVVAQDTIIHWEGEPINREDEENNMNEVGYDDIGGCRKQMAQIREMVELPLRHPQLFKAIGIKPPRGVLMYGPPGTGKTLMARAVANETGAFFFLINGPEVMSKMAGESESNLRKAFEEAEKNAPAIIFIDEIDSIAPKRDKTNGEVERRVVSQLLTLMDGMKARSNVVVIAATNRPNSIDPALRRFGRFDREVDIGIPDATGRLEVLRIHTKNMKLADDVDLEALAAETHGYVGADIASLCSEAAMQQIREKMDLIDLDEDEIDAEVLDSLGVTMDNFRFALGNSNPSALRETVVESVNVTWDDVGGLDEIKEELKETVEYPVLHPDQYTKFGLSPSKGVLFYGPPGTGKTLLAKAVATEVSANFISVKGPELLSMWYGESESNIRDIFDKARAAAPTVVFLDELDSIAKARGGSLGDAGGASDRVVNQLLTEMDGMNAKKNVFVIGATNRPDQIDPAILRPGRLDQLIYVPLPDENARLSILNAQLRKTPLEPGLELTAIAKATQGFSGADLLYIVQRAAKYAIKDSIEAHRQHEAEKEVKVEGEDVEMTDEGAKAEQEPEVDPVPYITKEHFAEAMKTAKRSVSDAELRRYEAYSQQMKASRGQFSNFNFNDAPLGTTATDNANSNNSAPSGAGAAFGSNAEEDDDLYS

Legend:
Assay in all cases: co-IP; yeast crude extract in RNP buffer (0.1 M HEPES pH 7.4, 100 mM NaCl, 0.1% NP-40) on anti-HA agarose beads, 4°C, 90 minutes; HA-Irc20 derivatives precipitated, Cdc48–3xMyc detected by anti-MYC western blot
[1] = target: T1, 3xHA-Irc20 (a.a. 584–1556) (S. cerevisiae) (UniProt Q06554)
T1 sequence: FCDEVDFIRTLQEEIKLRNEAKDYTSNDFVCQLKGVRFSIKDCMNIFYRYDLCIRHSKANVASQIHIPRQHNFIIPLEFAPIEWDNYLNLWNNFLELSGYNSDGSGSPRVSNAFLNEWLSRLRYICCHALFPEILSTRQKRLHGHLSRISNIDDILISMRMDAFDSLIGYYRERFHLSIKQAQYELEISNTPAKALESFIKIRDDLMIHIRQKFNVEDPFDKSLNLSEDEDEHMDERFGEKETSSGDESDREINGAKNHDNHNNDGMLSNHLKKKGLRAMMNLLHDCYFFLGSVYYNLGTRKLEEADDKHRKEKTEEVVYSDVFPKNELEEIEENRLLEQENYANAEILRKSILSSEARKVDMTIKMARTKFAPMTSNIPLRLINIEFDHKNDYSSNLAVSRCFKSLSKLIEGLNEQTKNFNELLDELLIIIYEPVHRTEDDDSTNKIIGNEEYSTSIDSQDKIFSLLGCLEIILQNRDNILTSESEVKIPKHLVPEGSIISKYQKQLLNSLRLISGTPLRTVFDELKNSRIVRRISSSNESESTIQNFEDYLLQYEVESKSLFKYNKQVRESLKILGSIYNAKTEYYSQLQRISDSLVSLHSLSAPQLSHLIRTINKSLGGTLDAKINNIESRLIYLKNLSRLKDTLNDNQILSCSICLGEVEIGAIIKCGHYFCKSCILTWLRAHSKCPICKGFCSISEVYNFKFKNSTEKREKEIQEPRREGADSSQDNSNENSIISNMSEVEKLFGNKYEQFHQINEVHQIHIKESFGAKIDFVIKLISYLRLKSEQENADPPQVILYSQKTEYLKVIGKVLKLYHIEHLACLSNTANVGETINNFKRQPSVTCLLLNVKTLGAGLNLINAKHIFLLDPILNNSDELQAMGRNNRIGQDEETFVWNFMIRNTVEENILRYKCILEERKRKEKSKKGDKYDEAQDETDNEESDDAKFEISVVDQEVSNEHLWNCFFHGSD

[2] = target: T2, 3xHA-Irc20 (a.a. 584–882) (S. cerevisiae) (UniProt Q06554)
T2 sequence: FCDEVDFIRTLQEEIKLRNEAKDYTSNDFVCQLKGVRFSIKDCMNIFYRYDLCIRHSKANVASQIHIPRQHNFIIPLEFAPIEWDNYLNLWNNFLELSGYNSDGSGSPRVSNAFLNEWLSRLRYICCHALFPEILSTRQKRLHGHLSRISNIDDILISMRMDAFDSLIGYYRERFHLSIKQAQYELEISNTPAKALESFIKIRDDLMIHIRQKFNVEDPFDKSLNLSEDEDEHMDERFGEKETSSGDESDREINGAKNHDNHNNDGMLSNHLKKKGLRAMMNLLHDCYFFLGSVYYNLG

[3] = target: T3, 3xHA-Irc20 (a.a. 1–386) (S. cerevisiae) (UniProt Q06554)
T3 sequence: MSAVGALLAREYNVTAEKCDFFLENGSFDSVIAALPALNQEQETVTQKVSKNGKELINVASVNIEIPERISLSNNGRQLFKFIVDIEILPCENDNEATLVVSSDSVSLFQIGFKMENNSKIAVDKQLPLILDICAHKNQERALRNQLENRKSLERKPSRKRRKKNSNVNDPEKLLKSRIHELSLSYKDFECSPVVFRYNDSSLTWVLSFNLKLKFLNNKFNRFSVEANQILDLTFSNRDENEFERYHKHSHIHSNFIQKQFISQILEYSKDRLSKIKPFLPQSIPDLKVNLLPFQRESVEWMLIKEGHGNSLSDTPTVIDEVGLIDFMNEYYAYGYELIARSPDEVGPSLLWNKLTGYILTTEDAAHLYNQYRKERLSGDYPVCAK

binding [1]: binds
binding [2]: no binding
binding [3]: no binding
Substance: Cdc48–3xMyc (from UniProt P25694 1-835)
